Like-named read-outs stand apart in the source and are kept apart here. At least one peptide structure holds a part that was inferred or is arguable (an end, a ring closure or a residue). Peptide text beside a SMILES is read from it. * marks the point of attachment. BODIPYFLEthylmaleimide = Cc1cc(C)n2c1C=C1C=CC(CCC(=O)NCCN3C(=O)CC(*)C3=O)=[N+]1[B-]2(F)F
Experiments:
[1] = system: LPS-induced NF-κB activation in 70Z/3-C3 cells; experiment: NF-κB inhibition assay, first procedure (NF-κB dependent β-galactosidase reporter, LPS stimulation); format: cell-based, murine
70Z/3-C3 cells = experiment: FACS analysis of cellular uptake of BODIPY-labeled peptides; format: cell-based, murine; conditions: 20 μM, 37° C.; unchanged for up to 5 h
Experimental: All experiments were performed in duplicates.
The uptake of BODIPY labeled NEMO peptides into living cells were monitored by fluorescence activated cell sorting (FACS) which is a conventional tool used to quantify cellular internalization.
Then present inventors next investigated the kinetic and concentration dependency of cellular uptake for the Ant-CC2 BODIPY peptide keeping in mind that the transduction of other NEMO peptides should occur in a similar fashion (FIGS. 2B and 2C).

[2] = system: LPS-induced NF-κB activation in 70Z/3-C3 cells; experiment: NF-κB inhibition assay, second more stringent procedure (peptide washed out, 24 h growth before LPS); format: cell-based, murine; conditions: 10 μM peptide
Excerpt: FIG. 4: Specific Inhibition of NF-κB Activation in Response to LPS Depends on a Few Mutations in the Hydrophobic Core of CC2 and LZ Coiled-Coils Left panels show a helical wheel diagram of CC2 (A) and LZ (B) peptides. The view is from the top the molecule. The (a) through (g) positions, which are an essential feature of coiled coil sequence (Vinson, 2002, Mol. Cell. Biol.) represent sequential positions in each peptide sequence. The first (a) and fourth (d) positions that are generally occupied by hydrophobic amino acids constitute the hydrophobic core for parallel as well as antiparallel-coiled coils. […] NF-κB activity was measured using the β-galactosidase assay. […]
FIG. 5: Inhibition of NF-κB Activation by the LZ Peptide Occurs Through the Formation of Specific Coiled-Coil Strands. […] NF-κB activity was measured using the β-galactosidase assay. […]

[3] = target: T1, CC2 peptide composing the minimal oligomerization domain of NEMO (Mus musculus, UniProt O88522); experiment: Fluorescence anisotropy titration with CC2 peptide; format: binding, murine
T1 construct: SKGMQLEDLRQQLQQAEEA; made in house; host or cells: chemical solid-phase peptide synthesis (Fmoc/tBu), not expressed
T1 sequence (O88522 248-287): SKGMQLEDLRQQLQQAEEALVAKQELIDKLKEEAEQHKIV
Experimental: FIG. 7: Association of Ant-CC2 and Ant-LZ Peptides to the CC2 Peptide (A) Direct titration of BODIPY-Ant-CC2 (1 μM) with CC2 by fluorescence anitropy. The concentration of CC2 was determined by amino acid analysis. Anisotropy values of BODIPY-Ant-CC2 in milliunits (mA) were plotted against an increasing concentration of the CC2 peptide. […] The two dashed lines represent a stoichiometric titration and intersect at an CC2 concentration of […]. Given the 1 μM concentration of the BODIPY-Ant-CC2, this gives a complex stoechiometrie of 0.8. (B) Direct titration of BODIPY-Ant-LZ (0.1 μM with CC2 by fluorescence anitropy. The anisotropy values of the BODIPY-Ant-LZ alone (white bar) or in the presence of the CC2 peptide (30 μM, grey bar; 100 μM, black bar) are given in milliunits (mA).
Anisotropy measurements were performed with a PTI Quantamaster fluorometer equipped with polarizers for the excitation and emission beams. This instrument uses a PMT in the L-configuration. […] Steady-state fluorescence anisotropy was expressed as millianisotropy (mA) and was calculated according to the equations: (1) A=(IVV−GIVH)/(IVV+2GIVH); (2) G=IHV/IHH; where A is anisotropy, G is a correction factor for wavelength-dependent distortion and I is the fluorescence intensity component (subscript referring to the vertical and horizontal positioning at the excitation and emission polarizers, respectively). […]

| Compound | IC50 ([1]; inhibition of NF-κB activation pathway, read-out: IC 50) [µM] | time to reach maximum intracellular concentration (70Z/3-C3 cells) [min] | fold reduction of LPS-induced NF-κB activation [2] [fold] | binding stoichiometry ([3]; 1 μM BODIPY-Ant-CC2 titrated with CC2) | binding to the CC2 peptide (in words) ([3]; in vitro, fluorescence polarization) | effect on LPS-induced NF-κB activation (in words) ([1]; 20 μM peptide, 2 h, then 5 h LPS) | reduction of NF-κB activity as compared with a control peptide ([1]; 20 μM peptide, B lymphocytes stimulated by LPS) [%] | basal NF-κB activity in the absence of LPS (in words) ([1]; 20 μM peptide, no LPS) | IC50 ([1]; 70Z3-C3 cells, 2 h peptide, then 5 h LPS, read-out: IC50, 50% inhibition of LPS-induced NF-κB activation as compared to the control (no peptide)) [µM] |
| --- | --- | --- | --- | --- | --- | --- | --- | --- | --- |
| CC[C@H](C)[C@H](NC(=O)[C@H](CC(=O)O)NC(=O)[C@H](C)NC(=O)[C@H](CCC(N)=O)NC(=O)[C@H](C)NC(=O)[C@H](CCCCN)NC(=O)[C@H](CC(C)C)NC(=O)[C@H](CCCNC(=N)N)NC(=O)[C@H](CCCNC(=N)N)NC(=O)[C@H](CCCNC(=N)N)NC(=O)[C@H](CCC(N)=O)NC(=O)[C@H](CCCNC(=N)N)NC(=O)[C@H](CCCNC(=N)N)NC(=O)[C@H](CCCCN)NC(=O)[C@H](CCCCN)NC(=O)[C@H](CCCNC(=N)N)NC(=O)CNC(=O)[C@H](Cc1ccc(O)cc1)NC(=O)[C@H](CSC1CC(=O)N(CCNC(=O)CCC2=[N+]3C(=Cc4c(C)cc(C)n4[B-]3(F)F)C=C2)C1=O)NC(C)=O)C(=O)N[C@@H](Cc1ccc(O)cc1)C(=O)N[C@@H](CCCCN)C(=O)N[C@@H](C)C(=O)N[C@@H](CCCNC(=N)N)C(=O)N[C@@H](Cc1ccccc1)C(=O)N[C@@H](CCC(N)=O)C(=O)N[C@@H](C)C(=O)N[C@@H](CCC(=O)O)C(=O)N[C@@H](CCCNC(=N)N)C(=O)N[C@@H](Cc1c[nH]cn1)C(=O)N[C@@H](C)C(=O)N[C@@H](CCCNC(=N)N)C(=O)N[C@@H](CCC(=O)O)C(=O)N[C@@H](CCCCN)C(N)=O (stereo partly drawn) [BODIPY-TAT-NLM-DR] (Ac-C(BODIPYFLEthylmaleimide)YGRKKRRQRRRLKAQADIYKARFQAERHAREK-NH2) | 1 |  |  |  |  |  |  |  |  |
| Ac-C(BODIPYFLEthylmaleimide)RQIKIWFQNRRMKWKKSKGMQLEDLRQQLQQAEEALVAKQELIDKLKEEAEQHKIV-NH2 [BODIPY-Ant-CC2 (WT)] |  | 30 | 1.7 | 0.8 | binds in vitro to the CC2 peptide | decreased significantly the NF-κB activation | 70 | without affecting the intrinsic basal NF-κB activity | 22 |

— US7700553B2, “Selective inhibition of NF-κB activation by peptides designed to disrupt nemo oligomerization” (priority 2003, dated 2010)
